The text below walks through data of US20200197266A1, “MICROGELS FOR THE DELIVERY OF COSMETIC ACTIVE ORGANIC SUBSTANCES” (LVMH RECHERCHE, priority 2017, published 2020).

A short description of this data set: Encapsulation of cosmetic active molecules into bare microgel dispersion (entrapment efficiency). To be noted: OEGDA-microgel dispersion.
Setting [1] is: all tested feeding concentrations and encapsulation temperatures.

In the case of `CC(C)=CCCC(C)CCO` (stereo not drawn) [Citronellol, 3,7-dimethyloct-6-en-1-ol], the “E.E. (entrapment efficiency)” value under setting [1] is on record as over 70%.
The same measure, in the same setting: the same measure for `CCCCC(CC)COC(=O)c1ccccc1O` (stereo not drawn) [Escalol, 2-ethylhexyl salicylate]: “above 90%”.
For the compound `COc1cc(O)c(C(=O)c2ccccc2)cc1S(=O)(=O)O` [Benzophenone-4, 4-Hydroxy-2-methoxy-5-(oxo-phenylmethyl)benzenesulfonic acid], the “E.E. (entrapment efficiency)” value (feeding substance amount lower than 1 mg/(mg unloaded microgels), 20° C. and 50° C.) is “higher than 80%”.
As to Hyaluronic acid, the “E.E. (entrapment efficiency)” value (at 600 microgram/mg, encapsulation pH 6) is recorded as 50%.
Take `CCCCCCOC(=O)c1ccccc1C(=O)c1ccc(N(CC)CC)cc1O` [Uvinul-A, hexyl 2-[4-(diethylamino)-2-hydroxybenzoyl]benzoate]: the “E.E. % (entrapment efficiency)” value is “higher than 50%” (feeding substance amount between 1,500 and 3,000 μg/mg microgel); “higher than 70%” (feeding substance amount lower than 1,500 μg/mg microgel, encapsulation at 20° C. or 50° C.).
